Laboratory results as given in publication PMC7862700.
This is one part of the list. The exact form of the protein is not confirmed.

The sequences below were run against T1, ELF2 (UniProt Q15723) (assay: DAPPL (digital affinity profiling via proximity ligation, sequencing)). Settings: 10 mM Tris-HCl pH 7.5, 50 mM NaCl, 1 mM DTT, 4% glycerol, room temperature, 30 min; GST-TFs on glutathione beads, 16-mer random dsDNA library, 0.1% …; high values mean tight binding; double strand, one strand shown; scale: fold enrichment (6-mer frequency, TF over GST control).
T1 sequence: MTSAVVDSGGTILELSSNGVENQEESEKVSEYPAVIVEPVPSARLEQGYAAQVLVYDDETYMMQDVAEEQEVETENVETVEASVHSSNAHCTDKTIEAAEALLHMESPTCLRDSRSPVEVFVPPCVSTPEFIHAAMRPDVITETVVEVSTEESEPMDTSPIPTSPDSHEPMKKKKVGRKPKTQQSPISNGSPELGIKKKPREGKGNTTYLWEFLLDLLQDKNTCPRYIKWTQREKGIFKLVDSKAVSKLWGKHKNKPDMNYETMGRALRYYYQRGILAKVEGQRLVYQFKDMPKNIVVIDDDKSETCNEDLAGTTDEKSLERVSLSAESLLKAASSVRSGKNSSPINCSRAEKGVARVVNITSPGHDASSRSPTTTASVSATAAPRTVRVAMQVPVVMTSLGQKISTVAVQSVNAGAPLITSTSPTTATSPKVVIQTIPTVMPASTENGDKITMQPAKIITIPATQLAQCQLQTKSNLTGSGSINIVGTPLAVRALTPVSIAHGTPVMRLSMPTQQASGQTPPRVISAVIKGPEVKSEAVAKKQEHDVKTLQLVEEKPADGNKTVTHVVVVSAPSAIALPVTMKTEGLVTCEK
TACTCG showed a binding signal of 1.19.
With ACAATC the binding signal was 1.11.
For GATGCC, the binding signal was 1.25.
Sequence TTTACG has a binding signal of 1.25.
With ACATTC the binding signal was 1.27.
CGCCGA gave a binding signal of 1.09.
TACTGG was tested, and the binding signal was 1.04.
For AATTCA, the binding signal was 1.31.
Work on TAAGAT yielded a binding signal of 1.2.
GATTTT gave a binding signal of 1.11.
In the case of TGACTT, the binding signal is reported as 1.58.
Work on GCTTTG yielded a binding signal of 1.06.
For TACTTA, the binding signal was 1.18.
For TTTTTA, the binding signal was 1.3.
For CTCAAT, the binding signal was 1.17.
TTGCGC was tested, and the binding signal was 1.08.
TTACAA gave a binding signal of 1.11.
With ATACAG the binding signal was 1.2.
Sequence CGTTCG has a binding signal of 1.17.
For CGAGCT, the binding signal was 1.06.
In the case of GTACTT, the binding signal is reported as 2.21.
CATCCC was tested, and the binding signal was 1.22.
With CATCTA the binding signal was 1.08.
With TCACGC the binding signal was 1.13.
With AAATTG the binding signal was 1.26.
Sequence CGGCTT has a binding signal of 1.19.
Sequence TCGCAC has a binding signal of 0.994.
In the case of CTTTCT, the binding signal is reported as 1.46.
ATTAGC gave a binding signal of 1.07.
ACTCTT gave a binding signal of 1.22.
TTGACA was tested, and the binding signal was 1.27.
TGCGAT gave a binding signal of 1.07.
CGATAT was tested, and the binding signal was 1.1.
With AACAGC the binding signal was 1.08.
CCTCAT was tested, and the binding signal was 1.3.
AACGTA gave a binding signal of 0.969.
Work on ATTATG yielded a binding signal of 1.14.
CGTATT gave a binding signal of 1.19.
Work on TAACGA yielded a binding signal of 1.07.
